Source: patent publication USRE35044E, “Cyanine compounds” (Asahi Chemical Co., Ltd., priority 1987, dated 1995)

What was measured:
[1] = Test for optimum recording power; settings: 780 nm, 1.2 m/s, 450 kHz; CN ratio at least 45 dB, error rate up to 50 cps; listed as Dye of Prep. Ex. 11
Description: Information was recorded on a photosensitive recording medium formed using each of the cyanine dyes shown below in Table 1 by irradiation of semiconductor laser beams at 780 nm at a recording power of 0.2 mW, a liner velocity of 1.2 m/s and a frequency of 450 kHz and the recorded information was reproduced at a reproducing power of 0.2 mW. The optimum recording power is one at which errors occur at the lowest frequency (CN ratio of at least 45 dB and error rate of up to 50 cps) when the recording is reproduced at varying recording powers of from 2.0 to 8.0 mW and the recorded information was reproduced by irradiation of semiconductor laser beams at 780 nm at a reproducing power of 0.2 mW.

[2] = Test for reflectivity and absorptivity (dye coating on acrylic resin plate, semiconductor laser beam 780 nm); settings: coating 600 to 700 Å thick on acrylic resin plate
Description: Each of cyanine dyes as shown below in Table 1 was dissolved in dichloromethane to a concentration of 20 g/l. The solution was applied to an acrylic resin plate by a spin coater rotated at 1500 rpm to form a layer of 600 to 700 Å thickness, and the coating was dried. The reflectivity and absorptivity of the coating were measured by irradiation of semiconductor laser beam at 780 nm over the coating surface.

CCCCN1C(=CC=CC=CC2=[N+](CCCC)c3cc(OC)c(OC)cc3C2(C)C)C(C)(C)c2cc(OC)c(OC)cc21 [Preparation Example 11]
Optimum recording power [1]: 2.9 mW

COCCN1C(=CC=CC=CC2=[N+](CCOC)c3c(OC)cc(OC)cc3C2(C)C)C(C)(C)c2cc(OC)cc(OC)c21 [Preparation Example 14]
Absorptivity [2]: 19%
